Tested on: T-47D cells
Assay: Uptake of estrone-3-sulfate by T-47D cells (time course, cation and concentration dependence)
Type: cell-based, human
Details: 7.1 nM
Description: Cultured T-47D cells were incubated at 37° C. over 35 min in medium containing [^3H] estrone-3-sulfate (7.1 nM) with (open circles) or without (closed circles) 1 mM unlabeled estrone-3-sulfate. Each value represents the mean±S.E.M. (n=4). When the error bars are not shown, they are smaller than the symbols.
The uptake rate of [^3H] estrone-3-sulfate (7.1 nM) for 10 min was measured in the presence or absence of extracellular Na^+. Extracellular Na^+ was replaced with K^+, Li^+, or N-methylglucamine^+ (NMG^+). Each value represents the mean±S.E.M. (n=4).
The uptake of estrone-3-sulfate at various concentrations, ranging from 5.1 nM to 50 μM, was measured at 37° C. for 10 min. […]
Transport experiments were performed as described previously (Tamai et al., 2001). […] Then, the associated radioactivity was measured by means of a liquid scintillation counter using Clearsol-1 (Nacalai tesque) as a liquid scintillation fluid.
Cellular protein content was determined according to the method of Bradford by using a BioRad protein assay kit (Hercules) with bovine serum albumin as the standard (Bradford, 1976). […] All data were expressed as means±S.E.M., and statistical analysis was performed by the use of Student's t test with P<0.05 as the criterion of significance. […]

C[C@]12CC[C@@H]3c4ccc(OS(=O)(=O)O)cc4CC[C@H]3[C@@H]1CCC2=O [Estrone-3-sulfate]
time course of [3H] estrone-3-sulfate uptake (37° C.): increased linearly over 20 min | [3H] estrone-3-sulfate uptake when Na+ replaced with K+, Li+ or N-methylglucamine+ (10 min): comparable to that in the presence of Na^+

Reference: patent US20070148703A1, “Method of screening remedy for breast cancer” (Genomembrane, Inc., priority 2003, published 2007)
